PubChem BioAssay AID652243 – Drosophila RNAi Screening Center | 2013
Test: 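Fly genes required for human androgen receptor driven transcription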 (primary screen). System: Drosophila S2R+ cells. Knock-down reagent: long dsRNA against Drosophila genes. Time to read-out: 72 h (48 h, then 24 h hormone). Treatment: synthetic androgen R1881 at 10 nM for 24 h. Read-out: 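Firefly light from an androgen-responsive reporter and Renilla control light per well, raw and unnormalised, for each of two replicates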. Direction: firefly reporter light: higher = more light from androgen-responsive reporter; Renilla control light: higher = more constitutive control signal (cell number, transfection). Rule for the call: 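Hit when the log firefly-to-Renilla ratio dropped or increased by a fixed fold versus the mean of GFP or LacZ controls across duplicate plates; lowering cut given as 1.5 and as 3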. Calls: active = hit: reporter lowered or raised; inactive = no hit.
The deposit covers about 24,000 reagents; shown is an unselected part of those that have a named target and a result. Of all reagents, 246 (1%) were called active. 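Plates not normalised; calls are printed but the firefly/Renilla ratio behind them is not deposited; fold cut for lowering reported inconsistently.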 Raw values vary from plate to plate and are shown uncorrected. A plus sign joins genes that one reagent is predicted to hit. Reagent sequences are not shown. The record does not give: the amount of reagent.

| Target gene | dsRNA | firefly reporter light, replicate 1 | firefly reporter light, replicate 2 | Renilla control light, replicate 1 | Renilla control light, replicate 2 | Outcome |
| --- | --- | --- | --- | --- | --- | --- |
| CG14151 | DRSC10153 | 2.49e5 | 2.29e5 | 1.87e6 | 1.69e6 | inactive |
| CG34396 | DRSC04245 | 1.78e5 | 2.49e5 | 1.58e6 | 1.96e6 | inactive |
| CG34396 | DRSC04246 | 1.15e5 | 2.47e5 | 8.45e5 | 1.38e6 | inactive |
| CG34396 | DRSC29674 | 2.86e5 | 5.44e5 | 6.85e5 | 6.85e5 | inactive |
| mRpS11 | DRSC15732 | 3.31e5 | 2.58e5 | 2.63e6 | 2.44e6 | inactive |
| CG9541 | DRSC03257 | 1.58e5 | 1.77e5 | 1.96e6 | 1.64e6 | inactive |
| CG9541 | DRSC39269 | – | – | – | – | inactive |
| CG9541 | DRSC39270 | – | – | – | – | inactive |
| CheB53b | DRSC05613 | 1.03e5 | 1.94e5 | 2.85e5 | 4.41e5 | inactive |
| CheB53b | DRSC28557 | 3.42e5 | 6.42e5 | 1.04e6 | 1.69e6 | inactive |
| CG41099 | DRSC38767 | 1.22e6 | 1.00e6 | 2.64e6 | 1.89e6 | inactive |
| Cad87A | DRSC16161 | 59948 | 60532 | 5.24e5 | 4.87e5 | inactive |
| Cad87A | DRSC29158 | 3.39e5 | 4.94e5 | 8.48e5 | 1.00e6 | inactive |
| Rpn1 | DRSC11274 | 32801 | 40170 | 4.20e5 | 3.97e5 | inactive |
| vanin-like | DRSC17440 | 3.89e5 | 6.26e5 | 8.76e5 | 8.03e5 | inactive |
| BBS1 | DRSC10196 | 4.48e5 | 5.97e5 | 3.28e6 | 3.85e6 | inactive |
| CG2006 + Spase12 | DRSC14316 | 2.63e5 | 2.18e5 | 2.66e6 | 3.13e6 | inactive |
| boly | DRSC21629 | 8.80e5 | 6.47e5 | 2.89e6 | 1.87e6 | inactive |
| CG3907 | DRSC04432 | 1.55e5 | 1.70e5 | 8.15e5 | 1.20e6 | inactive |
| CR9337 | DRSC03212 | 1.28e6 | 6.23e5 | 2.91e6 | 2.33e6 | inactive |
| CR9337 | DRSC29798 | 4.53e5 | 4.86e5 | 2.03e6 | 1.92e6 | inactive |
| CG42726 + CG42727 | DRSC14485 | 25146 | 25109 | 3.97e5 | 4.19e5 | inactive |
| CG42726 + CG42727 | DRSC27155 | 2.60e5 | 2.08e5 | 6.93e5 | 6.27e5 | inactive |
| CG32277 | DRSC08196 | 1.65e5 | 1.50e5 | 1.14e6 | 1.15e6 | inactive |
| f-cup | DRSC14139 | 41434 | 80190 | 2.11e5 | 2.43e5 | inactive |
| f-cup | DRSC28933 | 4.43e5 | 4.28e5 | 9.96e5 | 1.30e6 | inactive |
| Mst85C | DRSC16746 | 1.58e5 | 1.45e5 | 2.32e6 | 2.35e6 | inactive |
| Mst85C | DRSC26445 | 2.38e5 | 3.92e5 | 4.86e5 | 6.38e5 | inactive |
| Ask1 | DRSC16789 | 3.32e5 | 3.07e5 | 3.20e6 | 3.95e6 | inactive |
| Ask1 | DRSC21697 | 6.49e5 | 5.30e5 | 2.15e6 | 1.44e6 | inactive |
| Ask1 | DRSC36689 | – | – | – | – | inactive |
| Ask1 | DRSC36690 | – | – | – | – | inactive |
| CG3515 | DRSC00609 | 91531 | 73406 | 7.24e5 | 6.81e5 | inactive |
| bin | DRSC10332 | 1.02e5 | 84999 | 1.00e6 | 1.21e6 | inactive |
| bin | DRSC29845 | 5.07e5 | 3.97e5 | 1.04e6 | 1.09e6 | inactive |
| CG34198 | DRSC38708 | 7.64e5 | 6.79e5 | 1.38e6 | 1.44e6 | inactive |
| Tsp68C | DRSC09295 | 1.50e5 | 61953 | 2.32e5 | 1.78e5 | inactive |
| Tsp68C | DRSC28942 | 5.75e5 | 5.41e5 | 9.39e5 | 7.99e5 | inactive |
| CG13793 | DRSC02297 | 2.84e5 | 2.33e5 | 1.69e6 | 1.86e6 | inactive |
| CG13793 | DRSC28252 | 3.10e5 | 5.33e5 | 1.08e6 | 1.55e6 | inactive |
| Trissin | DRSC14994 | 1.24e5 | 1.58e5 | 2.15e6 | 2.65e6 | inactive |
| CG34332 | DRSC38705 | 7.48e5 | 6.87e5 | 1.73e6 | 2.11e6 | inactive |
| Cdk7 | DRSC18451 | 2.96e5 | 2.31e5 | 2.09e6 | 1.61e6 | active |
| Cdk7 | DRSC23327 | 6.95e5 | 7.27e5 | 5.86e5 | 7.49e5 | active |
| CG32240 | DRSC08093 | 1.28e5 | 1.10e5 | 1.37e5 | 1.92e5 | inactive |
| mib2 | DRSC02623 | 9.64e5 | 7.91e5 | 1.28e6 | 1.27e6 | inactive |
| miple1 | DRSC08722 | 1.15e5 | 1.62e5 | 2.02e6 | 2.22e6 | inactive |
| spdo | DRSC13988 | 7.95e5 | 5.76e5 | 1.55e6 | 6.02e5 | inactive |
| spdo | DRSC24230 | 6.22e5 | 7.67e5 | 9.49e5 | 8.31e5 | inactive |
| CG7059 | DRSC16187 | 4.60e5 | 4.28e5 | 4.23e6 | 4.25e6 | inactive |
| CG7059 | DRSC28990 | 5.39e5 | 5.91e5 | 1.14e6 | 9.36e5 | inactive |
| Best1 | DRSC16909 | 6.93e5 | 7.34e5 | 2.67e6 | 1.79e6 | inactive |
| Best1 | DRSC26475 | 2.87e5 | 1.78e5 | 3.87e5 | 2.93e5 | inactive |
| Ipk2 | DRSC00357 | 91109 | 89620 | 5.70e5 | 6.30e5 | inactive |
| Ipk2 | DRSC24511 | 5.08e5 | 5.78e5 | 5.15e5 | 5.20e5 | inactive |
| Spc25 | DRSC14164 | 89929 | 1.08e5 | 1.71e6 | 2.38e6 | inactive |
| Bacc | DRSC27262 | 3.95e5 | 3.23e5 | 8.43e5 | 7.14e5 | inactive |
| Ref1 | DRSC12497 | 2.06e5 | 1.84e5 | 2.01e6 | 2.18e6 | inactive |
| Ref1 | DRSC22387 | 4.15e5 | 5.07e5 | 1.66e6 | 1.96e6 | inactive |

Reformatted: results already given.
{"Target gene":"CR9337","dsRNA":"DRSC29798","firefly reporter light, replicate 1":4.53e5,"firefly reporter light, replicate 2":4.86e5,"Renilla control light, replicate 1":2.03e6,"Renilla control light, replicate 2":1.92e6,"Outcome":"inactive"}
{"Target gene":"CG42726 + CG42727","dsRNA":"DRSC14485","firefly reporter light, replicate 1":25146,"firefly reporter light, replicate 2":25109,"Renilla control light, replicate 1":3.97e5,"Renilla control light, replicate 2":4.19e5,"Outcome":"inactive"}
{"Target gene":"CG42726 + CG42727","dsRNA":"DRSC27155","firefly reporter light, replicate 1":2.60e5,"firefly reporter light, replicate 2":2.08e5,"Renilla control light, replicate 1":6.93e5,"Renilla control light, replicate 2":6.27e5,"Outcome":"inactive"}
{"Target gene":"CG32277","dsRNA":"DRSC08196","firefly reporter light, replicate 1":1.65e5,"firefly reporter light, replicate 2":1.50e5,"Renilla control light, replicate 1":1.14e6,"Renilla control light, replicate 2":1.15e6,"Outcome":"inactive"}
{"Target gene":"f-cup","dsRNA":"DRSC14139","firefly reporter light, replicate 1":41434,"firefly reporter light, replicate 2":80190,"Renilla control light, replicate 1":2.11e5,"Renilla control light, replicate 2":2.43e5,"Outcome":"inactive"}
{"Target gene":"f-cup","dsRNA":"DRSC28933","firefly reporter light, replicate 1":4.43e5,"firefly reporter light, replicate 2":4.28e5,"Renilla control light, replicate 1":9.96e5,"Renilla control light, replicate 2":1.30e6,"Outcome":"inactive"}
{"Target gene":"Mst85C","dsRNA":"DRSC16746","firefly reporter light, replicate 1":1.58e5,"firefly reporter light, replicate 2":1.45e5,"Renilla control light, replicate 1":2.32e6,"Renilla control light, replicate 2":2.35e6,"Outcome":"inactive"}
